PubChem BioAssay AID1259405, NCATS – 2018

Test: 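Silenced genes that increase secreted GFP made by CHO cells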 (primary screen)
Cells: Chinese hamster CHO-K1 ovary cells with stable secreted eGFP expression
Reagent: single siRNA against mouse genes, 0.8 pmol siRNA per well (2 µl of 400 nM stock)
Time to read-out: 3 days
Detection: 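Percent of the per-plate non-targeting control median for intracellular GFP per well by laser scanning cytometry and for cell viability by ATP luminescence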
Reading the numbers: GFP, % of control: higher = more GFP per well, higher productivity; viability (ATP), % of control: higher = more viable cells (more ATP)
Rule for the call: 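Called active when intracellular GFP, relative to negative control, is at or above 120%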
Here is an unselected part of about 50,000 deposited reagents. About 4,000 of them (8%) count as active. 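Mouse siRNA library applied to hamster cells; one well for each siRNA.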 The numbers tell different reagents against one gene apart.

| Target gene | siRNA no. | GFP, % of control | viability (ATP), % of control | outcome |
| --- | --- | --- | --- | --- |
| Prr7 | 1 | 104 | 87.4 | inactive |
| Prr7 | 2 | 88.1 | 59.5 | inactive |
| Prr7 | 3 | 57.3 | 75.9 | inactive |
| Cyrib | 1 | 77.8 | 106 | inactive |
| Cyrib | 2 | 144 | 92.1 | active |
| Cyrib | 3 | 101 | 79.4 | inactive |
| Plau | 1 | 95.3 | 103 | inactive |
| Plau | 2 | 60.5 | 38.3 | inactive |
| Plau | 3 | 67.2 | 62.5 | inactive |
| Irf8 | 1 | 70.6 | 47.6 | inactive |
| Irf8 | 2 | 68.6 | 62.7 | inactive |
| Irf8 | 3 | 131 | 118 | active |
| Med19 | 1 | 112 | 88.7 | inactive |
| Med19 | 2 | 67.2 | 70.6 | inactive |
| Med19 | 3 | 83.2 | 85.3 | inactive |
| Or10j5 | 1 | 66.7 | 59.7 | inactive |
| Or10j5 | 2 | 54.3 | 58.5 | inactive |
| Or10j5 | 3 | 89.1 | 70.5 | inactive |
| Nanp | 1 | 55.8 | 69 | inactive |
| Nanp | 2 | 66.3 | 71.6 | inactive |
| Nanp | 3 | 69.6 | 79.1 | inactive |
| Abhd3 | 1 | 66.9 | 58.4 | inactive |
| Abhd3 | 2 | 95.5 | 76.3 | inactive |
| Abhd3 | 3 | 64.2 | 80.2 | inactive |
| Entpd7 | 1 | 60.5 | 55.8 | inactive |
| Entpd7 | 2 | 69.4 | 78.4 | inactive |
| Entpd7 | 3 | 94.9 | 64.4 | inactive |
| Reps1 | 1 | 90.2 | 48.8 | inactive |
| Reps1 | 2 | 194 | 102 | active |
| Reps1 | 3 | 62.5 | 65.7 | inactive |
| Nfatc4 | 1 | 72.3 | 64.5 | inactive |
| Nfatc4 | 2 | 81.4 | 96 | inactive |
| Nfatc4 | 3 | 90.5 | 129 | inactive |
| Prss34 | 1 | 179 | 124 | active |
| Prss34 | 2 | 154 | 94.6 | active |
| Prss34 | 3 | 91.8 | 81.6 | inactive |
| Plbd2 | 1 | 84.9 | 105 | inactive |
| Plbd2 | 2 | 85.1 | 59.9 | inactive |
| Plbd2 | 3 | 103 | 44.4 | inactive |
| Yars2 | 1 | 90.1 | 95.3 | inactive |
| Yars2 | 2 | 129 | 70.1 | active |
| Yars2 | 3 | 43.8 | 68 | inactive |
| Trim31 | 1 | 71.7 | 81.7 | inactive |
| Trim31 | 2 | 122 | 120 | active |
| Trim31 | 3 | 78.9 | 116 | inactive |
| Gja6 | 1 | 102 | 78.9 | inactive |
| Gja6 | 2 | 99.9 | 88 | inactive |
| Gja6 | 3 | 60.2 | 54.6 | inactive |
| Eif3g | 1 | 88.3 | 91.9 | inactive |
| Eif3g | 2 | 90.2 | 75.3 | inactive |
| Eif3g | 3 | 29.8 | 54.9 | inactive |
| Arhgap23 | 1 | 35.4 | 27.8 | inactive |
| Arhgap23 | 2 | 72.6 | 82.1 | inactive |
| Arhgap23 | 3 | 90.8 | 76 | inactive |
| Rassf4 | 1 | 55.8 | 80.7 | inactive |
| Rassf4 | 2 | 89.3 | 75.2 | inactive |
| Rassf4 | 3 | 52.7 | 54.7 | inactive |

An excerpt from above, reduced to “viability (ATP), % of control”.
Reps1 #2	102
Reps1 #3	65.7
Nfatc4 #1	64.5
Nfatc4 #2	96
Nfatc4 #3	129
Prss34 #1	124
